# Results from PubChem BioAssay AID2417 (National Center for Advancing Translational Sciences (NCATS), 2010).
# Among all 140,000 compounds or so, about 4,300 (3.1%) were called active. Inconclusive results, whose numbers are uncertain, are shown with a selection of clear calls.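 The calls were made as follows: active = readout at or below -70, meaning at least 70% loss of cells showing the perinucleolar compartment, a nuclear body marking cancer cells; inconclusive = readout between -30 and a set limit; inactive = the rest.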
# Assay: High Content Assay for Compounds that inhibit the Assembly of the Perinucleolar Compartment;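 also: plate controls were DMSO wells for no effect and camptothecin positive control wells for full effect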
# Settings: PC3M PTB-GFP, PNC prevalence imaging, 16 h; at 10 µM; hits give low values
# In short: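 PC3M cells stably expressing PTB-GFP, 750–1000 cells/well, treated 16 h at 37 °C with compound (23 nl of library stock), in duplicate. After paraformaldehyde fixation and Hoechst stain, imaged at 20x; PNC prevalence scored by image analysis.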
row,Compound,"activity change (PNC), negative = inhibition"
1,CCOc1ccc(NS(=O)(=O)c2ccc(N)cc2)cc1,inactive: 25.4%
2,Cc1nn(Cc2ccc(Cl)cc2)c(C)c1NC(=O)c1c(-c2ccccc2)noc1C,inconclusive: -41.1%
3,CN(C)S(=O)(=O)Nc1ccc(Br)cc1F,inconclusive: -76%
4,COc1ccc2nc(NC(=O)C3CCCN(S(=O)(=O)c4c(C)noc4C)C3)sc2c1 (stereo not drawn),inconclusive: -42.7%
5,CCCCCn1c(=NC(C)=O)c(C#N)cc2c(=O)n3ccccc3nc21,inconclusive: -37%
6,c1ccc(CCNc2ncnc3nc[nH]c23)cc1,inconclusive: -35.8%
7,COc1cccc(NC(=O)c2ccccc2SC)c1,inconclusive: -68.8%
8,COc1cccc(C(=O)N(Cc2ccco2)Cc2cc3cccc(C)c3[nH]c2=O)c1,inconclusive: -32.7%
9,Cc1nnnn1/C(=C\c1ccccc1)C(=O)OCC(=O)NC(C)(C)C,inconclusive: -64.6%
10,CC(C)NC(=O)Cn1c(SCC(=O)c2ccc(F)cc2)nc2ccccc21,inconclusive: -36.5%
11,CCN1CCN(Cc2nc3c(c(=O)n(C)c(=O)n3C)n2CCc2ccccc2)CC1,inconclusive: -31.9%
12,O=C1CC(N2CCN(c3cccc(C(F)(F)F)c3)CC2)C(=O)N1c1ccc(F)cc1 (stereo not drawn),inactive: -21.1%
13,COc1cccc(C2CC(c3ccccc3)Nc3ncnn32)c1 (stereo not drawn),inconclusive: -58%
14,O=C(CSc1nnnn1C1CCCCC1)Nc1cccc(NC(=O)c2ccco2)c1,inactive: 16.4%
15,CC(C)CCNCC1OCc2ccccc2CO1,inconclusive: -42%
16,CCOC(=O)c1oc2ccccc2c1CSc1nnnn1-c1ccc(OC)cc1,inconclusive: -55.8%
17,N#CCSc1nnc(CNc2cccc(Cl)c2)o1,inconclusive: -53.5%
18,CC(=O)N1CCc2c(sc(NC(=O)c3ccc4c(c3)OCCO4)c2C#N)C1,inconclusive: -64.7%
19,Cn1c(N/N=C2\CCCc3ccccc32)nc2c1c(=O)n(Cc1ccc(F)cc1)c(=O)n2C,inconclusive: -30.3%
20,CS(=O)(=O)Nc1nc2n(n1)C(c1ccccc1)C=C(c1ccc(Br)cc1)N2 (stereo not drawn),inconclusive: -45.3%
21,Cc1nc2c3cc(F)ccc3n(Cc3ccccc3)c2s1,inconclusive: -45.1%
22,COc1ccc(CN(Cc2cc3ccc(C)cc3[nH]c2=O)Cc2nnnn2C2CCCC2)cc1,inconclusive: -35.5%

# 2 entries from above in another layout.
row	Compound	activity change (PNC), negative = inhibition
6	c1ccc(CCNc2ncnc3nc[nH]c23)cc1	inconclusive: -35.8%
7	COc1cccc(NC(=O)c2ccccc2SC)c1	inconclusive: -68.8%

# Following part:

row,Compound,"activity change (PNC), negative = inhibition"
1,COC(=O)c1ccc(OCC2c3cc(OC)c(OC)cc3CCN2C(=O)C2CC2)cc1 (stereo not drawn),inactive: 24.2%
2,Cc1cc(C)c2[nH]c(=O)c(C(c3nnnn3Cc3ccc4c(c3)OCO4)N3CCCCC3)cc2c1 (stereo not drawn),inconclusive: -47.3%
3,CCn1c(SCC(=O)Nc2cc(C)ccc2C)nc2c(c1=O)SC(C)C2 (stereo not drawn),inconclusive: -37.6%
4,CCOC(=O)c1c(C(F)(F)F)cc(-c2ccc(F)cc2)nc1C,inconclusive: -70.6%
5,O=C(CSc1ncn[nH]1)NC12CC3CC(CC(C3)C1)C2,inactive: 32.3%
6,CC(=O)Nc1nonc1-c1ccccc1,inconclusive: -54.2%
7,O=c1[nH]c(-c2ccc(F)cc2)nc2c1sc(=S)n2-c1ccccc1,inconclusive: -30%
8,O=C(Nc1ccccc1Cl)N1CCN(c2ccc3nnc(-c4ccccc4)n3n2)CC1,inactive: 12.3%
9,CC(=O)N(Cc1cc2cc(C)c(C)cc2n2nnnc12)CC1COCCO1 (stereo not drawn),inconclusive: -30.9%
10,CC1(C)C2CCC1(CS(=O)(=O)Nc1ccc(S(=O)(=O)NC3CCCCC3)cc1)C(=O)C2 (stereo not drawn),inconclusive: -41%
11,CCC1(C)NC(=O)N(CC(=O)Nc2sc3c(c2C(=O)OC)CCCCC3)C1=O (stereo not drawn),inactive: 17.2%
12,O=[N+]([O-])c1ccc2cn[nH]c2c1,inconclusive: -66.3%
13,Cc1ccc(CCNC(=O)C2CCC(=O)N2C2CCCC2)cc1 (stereo not drawn),inconclusive: -38.5%
14,Cc1ccc(S(=O)(=O)NCCCCCC(=O)Nc2ccccc2C)cc1,inactive: 39.9%
15,c1ccc(-c2ccccc2-c2nc(-c3ccncc3)no2)cc1,inconclusive: -64.1%
16,CC(/C=N/n1c(-c2cccnc2)n[nH]c1=S)=C\c1ccccc1,inactive: 39.1%
17,Cc1ccc(NC(N)=S)cc1C,active: -125%
18,CC(=O)C1=C(Nc2ccc(C)cc2)CC(C)(O)C(C(C)=O)C1c1ccco1 (stereo not drawn),inconclusive: -37.6%
19,COCCn1c(C)cc(C(=O)COC(=O)c2cc3c(s2)CCC3)c1C,inconclusive: -35.3%
20,CCOC(=O)c1nn(-c2ccccc2)c2nnc(Cc3ccccc3)c(=O)n12,inconclusive: -45.7%
21,Cc1ccc(NS(=O)(=O)c2ccc(OCC(=O)N3CCOCC3)cc2)cc1,inactive: -21.6%
22,COc1cccc(Nc2nc(NCC3CCCO3)c3ccccc3n2)c1 (stereo not drawn),inactive: -3.99%

row,Compound,"activity change (PNC), negative = inhibition"
1,O=S(=O)(Nc1ccc(O)c(CN2CCCCC2)c1)c1ccccc1,inconclusive: -50.7%
2,C=CCN1C(=O)C(O)(CC(=O)c2ccc(-n3cccc3)cc2)c2ccccc21 (stereo not drawn),inconclusive: -40.8%
3,O=C(Cn1nc(-c2ccccc2)ccc1=O)NCC1COCCO1 (stereo not drawn),inconclusive: -32.5%
4,O=C(c1cccc(Cl)c1Cl)N1CCN(c2ccccn2)CC1,inconclusive: -54%
5,Cn1c(=O)c2nc(NCc3ccccc3)cnc2n(C)c1=O,inconclusive: -33.8%
6,COc1ccc(C(=O)C[n+]2ccc(C)cc2)cc1,inconclusive: -50.9%
7,CCOc1ccc(-n2cc(C(=O)N3CCN(C)CC3)c3cc(OC)c(OC)cc3c2=O)cc1,inconclusive: -62.8%
8,COc1ccc(S(=O)(=O)N(CC(=O)Nc2ccc(S(=O)(=O)N3CCOCC3)cc2)Cc2ccc(F)cc2)cc1,inactive: -15.3%
9,COc1ccc(CC(=O)NC(C)c2nnc(SCc3nc4ccccc4c(=O)[nH]3)n2C)cc1 (stereo not drawn),inconclusive: -39.2%
10,C[C@H](NC(=O)c1ccccc1Cl)C(=O)OCC(=O)N1CC2(C)CC1CC(C)(C)C2 (stereo partly drawn),inconclusive: -44.6%
11,CC(=O)C1=C(O)C(=O)N(Cc2ccccc2)C1c1ccccc1F (stereo not drawn),inconclusive: -31.8%
12,CCCCCCC(c1c(C)n(C)n(-c2ccccc2)c1=O)c1c(C)n(C)n(-c2ccccc2)c1=O,inconclusive: -35.2%
13,O=C(NCN1C(=O)C2C3C=CC(C3)C2C1=O)Nc1cccnc1 (stereo not drawn),inactive: 3.22%
14,CCC(c1nnnn1Cc1ccco1)N(CCc1ccccc1)Cc1cc2cccc(C)c2[nH]c1=O (stereo not drawn),inconclusive: -34.1%
15,O=C(c1ccc(Cl)cc1)c1cnc(-c2ccccc2)s1,inactive: 60.1%
16,CN(Cc1ccccc1)C(=O)CN(c1ccc(F)cc1)S(=O)(=O)c1ccc2c(c1)OCCO2,inconclusive: -55.2%
17,O=C(Nc1ccccc1)N1CC=C(c2ccccc2)CC1,inconclusive: -65.1%
18,COc1ccccc1NC(=O)C1=C(C)NC(SCC(=O)c2ccccc2)=C(C#N)C1c1ccco1 (stereo not drawn),inconclusive: -36.6%
19,CCCSc1nc(N)cc(=O)[nH]1,inconclusive: -56.8%
20,Cc1cccc(OCC(=O)Nc2ccc(S(=O)(=O)N3CCCC3)cc2)c1,active: -99%
21,Cc1ccc([N+](=O)[O-])cc1-c1ccc(/C=N\n2nnnc2N)o1,inconclusive: -52.5%
22,COC(=O)c1cc(Br)c(=O)n(Cc2ccc(C(=O)O)cc2)c1,inconclusive: -68%

# Retrieved by compound from the list above:
row,Compound,"activity change (PNC), negative = inhibition"
9,COc1ccc(CC(=O)NC(C)c2nnc(SCc3nc4ccccc4c(=O)[nH]3)n2C)cc1 (stereo not drawn),inconclusive: -39.2%
21,Cc1ccc([N+](=O)[O-])cc1-c1ccc(/C=N\n2nnnc2N)o1,inconclusive: -52.5%
10,C[C@H](NC(=O)c1ccccc1Cl)C(=O)OCC(=O)N1CC2(C)CC1CC(C)(C)C2 (stereo partly drawn),inconclusive: -44.6%
12,CCCCCCC(c1c(C)n(C)n(-c2ccccc2)c1=O)c1c(C)n(C)n(-c2ccccc2)c1=O,inconclusive: -35.2%

# The list goes on.

row,Compound,"activity change (PNC), negative = inhibition"
1,Cc1ccccc1-n1c(O)c(/C=C/C=Nc2ccccc2)c(=O)[nH]c1=O,inconclusive: -66.7%
2,COc1ccc(N2CCN(C(=O)c3ccc(N4C(=O)NC5CC4(C)Oc4ccccc45)cc3)CC2)cc1 (stereo not drawn),inconclusive: -52.7%
3,N#Cc1ccc(-c2ccc(OCC(=O)NCCc3ccccc3)cc2)cc1,inconclusive: -34.6%
4,CCOC(=O)C(C)c1n[nH]c(=O)c2ccccc12 (stereo not drawn),inconclusive: -30.8%
5,COc1ccccc1/C=C/C=N/n1c(-c2ccc(C)cc2)n[nH]c1=S,inconclusive: -34.2%
6,COc1ccc(/C=C/C(=O)c2ccc(O)cc2)cc1COc1ccc(F)cc1,inconclusive: -70.3%
7,OCCN(CCO)c1nc(N2CCCCC2)c2nc(N(CCO)CCO)nc(N3CCCCC3)c2n1,inactive: -4.63%
8,OC1CCN(c2ncnc3c2nnn3Cc2c(F)cccc2Cl)CC1,inconclusive: -72.4%
9,CNc1nc(SCC(=O)OC)nc(N2CCOCC2)n1,inconclusive: -42%
10,CCC(C)N(C)Cc1cccc(C2(O)CCN(S(=O)(=O)c3ccc(F)cc3)CC2)c1 (stereo not drawn),inactive: 10.4%
11,CC(C)N(C(=O)COC(=O)CNC(=O)c1ccc(Br)cc1)c1ccccc1,inconclusive: -35.6%
12,Cc1ccc(C(=O)CSc2nnc(-c3ccccc3N)n2C)cc1C,inconclusive: -38.2%
13,Cc1[nH]c2ccccc2c1C1C(c2ccccc2)=NN=C(C(C)C)N1O (stereo not drawn),active: -103%
14,Cc1cccc(NC(=S)NNC(=O)CCn2nc(C)c([N+](=O)[O-])c2C)c1,inconclusive: -38%
15,O=C(Oc1ccc(Cl)cc1)N1CCCCC1,inconclusive: -52.9%
16,COc1ccc(F)cc1S(=O)(=O)Nc1ccc2c(c1)OCO2,inconclusive: -63.3%
17,COc1ccc(-c2cc(C(F)(F)F)nc(SCC(N)=O)n2)cc1,inconclusive: -37.3%
18,Cc1cccc(C)c1NC(=O)c1cccc2c1-c1ccccc1C2=O,inconclusive: -72.3%
19,CCC(C)(C)n1nnnc1CN(Cc1ccc(Cl)cc1)Cc1ccco1,inconclusive: -32.1%
20,Nn1c(Cc2cccc3ccccc23)nnc1SC1CCOC1=O (stereo not drawn),inconclusive: -68.2%
21,Cc1cccc(C)c1-n1nnnc1S(=O)(=O)Cc1ccccc1Cl,inconclusive: -35.9%
22,O=C(Nc1ccccc1)N1CCSCC1,inconclusive: -39%
